These are yes or no findings as the source states them, for the method shown. Binding seen in cells or lysates may run through a third protein. Some binding calls cover weakened binding; strength is not graded here. Blank lines part the entries; values can stand above or below the substance they belong to.
Key:
[1] = biological target: GST-PPP1R9B expressed in HEK293T cells (UniProt Q96SB3); assay: co-IP; HEK293T cells cotransfected with tagged constructs, NP-40 lysate, primary antibody and Protein A/G beads at 4 °C, Western blot
[2] = biological target: His-PPP1CA (wild-type) expressed in HEK293T cells (UniProt P62136); assay: as above
[3] = biological target: protein phosphatase 1 catalytic subunit alpha (PPP1CA), endogenous in nucleus pulposus cells (human (endogenous in human NPCs)) (UniProt P62136); assay: co-IP; endogenous proteins in NPC lysate (NP-40), primary antibody and Protein A/G beads at 4 °C, Western blot; cells untreated or treated with TBHP, MG132, si-PPP1CA, si-PPP1R9B, si-SUV39H2 or SUV39H2 overexpression
[4] = biological target: Flag-TFEB expressed in HEK293T cells (UniProt P19484); assay: co-IP; HEK293T cells cotransfected with tagged constructs, NP-40 lysate, primary antibody and Protein A/G beads at 4 °C, Western blot
[5] = biological target: GST-PPP1R9B expressed in nucleus pulposus cells (UniProt Q96SB3); assay: co-IP; NPCs cotransfected with tagged constructs, with or without TBHP, NP-40 lysate, primary antibody and Protein A/G beads at 4 °C, Western blot
[6] = biological target: transcription factor EB (TFEB), endogenous in nucleus pulposus cells (human (endogenous in human NPCs)) (UniProt P19484); assay: co-IP; endogenous proteins in NPC lysate (NP-40), primary antibody and Protein A/G beads at 4 °C, Western blot; cells untreated or treated with TBHP, MG132, si-PPP1CA, si-PPP1R9B, si-SUV39H2 or SUV39H2 overexpression

The chains behind the UniProt entries cited, without tags or fusion partners. Where a name states a change or a piece, a line headed by the entry shows the natural chain unless it says otherwise.
UniProt Q96SB3: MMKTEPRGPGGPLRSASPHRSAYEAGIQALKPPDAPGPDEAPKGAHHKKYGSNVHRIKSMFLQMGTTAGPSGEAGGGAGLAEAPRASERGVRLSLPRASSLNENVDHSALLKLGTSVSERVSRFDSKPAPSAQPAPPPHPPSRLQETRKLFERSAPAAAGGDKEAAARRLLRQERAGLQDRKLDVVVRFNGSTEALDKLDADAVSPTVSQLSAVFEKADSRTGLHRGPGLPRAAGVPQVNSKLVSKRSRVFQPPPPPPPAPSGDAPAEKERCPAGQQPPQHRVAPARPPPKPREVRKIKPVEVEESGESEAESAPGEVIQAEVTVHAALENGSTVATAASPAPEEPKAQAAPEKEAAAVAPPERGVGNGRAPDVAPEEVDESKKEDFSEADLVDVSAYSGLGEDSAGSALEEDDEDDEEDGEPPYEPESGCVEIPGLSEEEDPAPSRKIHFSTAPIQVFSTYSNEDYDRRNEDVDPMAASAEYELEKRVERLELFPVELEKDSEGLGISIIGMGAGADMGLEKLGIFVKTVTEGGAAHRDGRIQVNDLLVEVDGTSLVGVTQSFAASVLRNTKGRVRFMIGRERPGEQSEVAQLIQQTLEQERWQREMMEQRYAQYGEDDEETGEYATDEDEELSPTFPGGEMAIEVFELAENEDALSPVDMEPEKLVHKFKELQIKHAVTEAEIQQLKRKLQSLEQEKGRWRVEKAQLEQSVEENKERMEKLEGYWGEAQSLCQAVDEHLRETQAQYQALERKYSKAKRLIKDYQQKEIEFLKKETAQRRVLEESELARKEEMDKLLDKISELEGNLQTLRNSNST
UniProt P62136: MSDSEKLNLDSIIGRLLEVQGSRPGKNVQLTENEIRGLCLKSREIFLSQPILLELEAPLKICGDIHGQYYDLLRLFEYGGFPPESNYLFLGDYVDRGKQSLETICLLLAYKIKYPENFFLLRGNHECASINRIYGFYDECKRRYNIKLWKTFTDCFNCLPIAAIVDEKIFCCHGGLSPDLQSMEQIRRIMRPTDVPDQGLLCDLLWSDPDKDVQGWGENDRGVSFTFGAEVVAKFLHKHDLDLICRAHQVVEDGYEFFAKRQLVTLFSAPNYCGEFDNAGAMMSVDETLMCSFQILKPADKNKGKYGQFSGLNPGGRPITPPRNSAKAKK
UniProt P19484: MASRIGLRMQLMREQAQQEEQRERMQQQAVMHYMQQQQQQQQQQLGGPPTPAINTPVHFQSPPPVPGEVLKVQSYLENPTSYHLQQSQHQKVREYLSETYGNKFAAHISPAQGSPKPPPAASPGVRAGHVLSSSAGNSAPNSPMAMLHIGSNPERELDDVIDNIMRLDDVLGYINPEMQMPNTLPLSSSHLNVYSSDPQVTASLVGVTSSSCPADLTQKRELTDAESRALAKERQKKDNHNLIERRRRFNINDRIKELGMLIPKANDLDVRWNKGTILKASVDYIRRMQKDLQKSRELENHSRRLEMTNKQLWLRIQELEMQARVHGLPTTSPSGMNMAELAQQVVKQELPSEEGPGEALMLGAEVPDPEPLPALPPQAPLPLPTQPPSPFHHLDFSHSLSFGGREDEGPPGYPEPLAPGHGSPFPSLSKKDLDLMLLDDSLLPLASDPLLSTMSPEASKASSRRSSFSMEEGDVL
UniProt Q9H5I1: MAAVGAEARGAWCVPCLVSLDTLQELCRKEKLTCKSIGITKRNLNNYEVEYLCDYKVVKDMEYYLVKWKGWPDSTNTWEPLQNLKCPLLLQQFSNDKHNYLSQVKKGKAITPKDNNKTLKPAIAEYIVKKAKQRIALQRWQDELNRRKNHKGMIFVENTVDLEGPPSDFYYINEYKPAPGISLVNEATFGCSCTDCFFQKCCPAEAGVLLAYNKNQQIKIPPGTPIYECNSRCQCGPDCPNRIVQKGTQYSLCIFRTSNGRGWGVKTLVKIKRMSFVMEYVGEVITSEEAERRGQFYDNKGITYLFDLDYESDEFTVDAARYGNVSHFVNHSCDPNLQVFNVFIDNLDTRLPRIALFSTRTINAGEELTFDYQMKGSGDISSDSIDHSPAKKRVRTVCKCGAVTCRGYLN

- binding [1]: binds
Substance: His-PPP1CA K141R (KR, methyl-deficient mutant) expressed in HEK293T cells (from UniProt P62136 1-330) (enzyme)

- binding [2]: binds
Substance: Mbp-SUV39H2 expressed in HEK293T cells (from UniProt Q9H5I1 1-410) (enzyme)

- binding [3]: binds
Substance: protein lysine methyltransferase suppressor of variegation 3-9 homologue 2 (SUV39H2), endogenous in nucleus pulposus cells (from UniProt Q9H5I1 1-410) (enzyme)

- binding [2]: binds
- binding [4]: binds
Substance: GST-PPP1R9B expressed in HEK293T cells (from UniProt Q96SB3 1-817)

- binding [5]: binds
Substance: His-PPP1CA (wild-type) expressed in nucleus pulposus cells (from UniProt P62136 1-330) (enzyme)

- binding [5]: binds
Substance: His-PPP1CA K141R (KR mutant) expressed in nucleus pulposus cells (from UniProt P62136 1-330) (enzyme)

- binding [1]: binds
Substance: His-PPP1CA (wild-type) expressed in HEK293T cells (from UniProt P62136 1-330) (enzyme)

- binding [3]: binds
- binding [6]: binds
Substance: protein phosphatase 1 regulatory subunit 9B (PPP1R9B), endogenous in nucleus pulposus cells (from UniProt Q96SB3 1-817)
